Data as given in US8076285B2 (Aicuris GmbH & Co. KG, priority 2006, dated 2011).

Experiment: general procedure: Fmoc solid-phase peptide synthesis; 2-chlorotrityl chloride resin (Iris Biotech), 0.85 mmol/g; TBTU/DIEA
Details: for cyclisation yield: cyclisation step
[1] = coupling step, trifluoroacetate
[2] = late stage modification step, trifluoroacetate
[3] = late stage modification step, bistrifluoroacetate

Substance: [(3R)-N^2-(Benzyloxycarbonyl)-3-{(tert-butoxycarbonyl)amino}-L-phenylalanyl]-[(3R)-3-hydroxy-L-leucyl]-L-leucyl-D-arginyl-L-valyl-L-allothreonyl-glycyl-L-seryl-L-serine trifluoroacetate
- step yield [1]: 42% of theory

Substance: [(3R)-N^2-(Benzyloxycarbonyl)-3-{(tert-butoxycarbonyl)amino}-L-phenylalanyl]-[(3R)-3-hydroxy-L-leucyl]-L-leucyl-D-arginyl-[3-trimethylsilyl-L-alanlyl]-L-allothreonyl-glycyl-L-seryl-L-serine trifluoroacetate
- step yield [1]: 33% of theory

Substance: [(3R)-N^2-(Benzyloxycarbonyl)-3-{(tert-butoxycarbonyl)amino}-L-phenylalanyl]-[(3R)-3-hydroxy-L-leucyl]-L-norleucyl-D-arginyl-L-isoleucyl-L-allothreonyl-glycyl-L-alanyl-L-serine trifluoroacetate
- step yield [1]: 25% of theory

Substance: [(3R)-N^2-(Benzyloxycarbonyl)-3-{(tert-butoxycarbonyl)amino}-L-phenylalanyl]-[(3R)-3-hydroxy-L-leucyl]-L-norvalyl-D-arginyl-L-isoleucyl-L-allothreonyl-glycyl-L-alanyl-L-serine trifluoroacetate
- step yield [1]: 23% of theory

Substance: [(3R)-N^2-(Benzyloxycarbonyl)-3-{(tert-butoxycarbonyl)amino}-L-phenylalanyl]-[(3R)-3-hydroxy-L-leucyl]-L-norvalyl-D-arginyl-L-isoleucyl-L-allothreonyl-glycyl-L-seryl-L-serine trifluoroacetate
- step yield [1]: 91% of theory

Substance: [(3R)-N^2-(Benzyloxycarbonyl)-3-{(tert-butoxycarbonyl)amino}-L-phenylalanyl]-[(3R)-3-hydroxy-L-leucyl]-L-valyl-D-arginyl-L-isoleucyl-L-allothreonyl-glycyl-L-seryl-L-serine trifluoroacetate
- step yield [1]: 32% of theory

Substance: [(3R)-N^2-(Benzyloxycarbonyl)-3-{(tert-butoxycarbonyl)amino}-L-phenylalanyl]-[(3R)-3-hydroxy-L-leucyl]-[3-tertbutyl-L-alanyl]-D-arginyl-L-isoleucyl-L-allothreonyl-glycyl-L-seryl-L-serine trifluoroacetate
- step yield [1]: 74% of theory

Substance: [(3R)-N^2-(tert-Butoxycarbonyl)-3-hydroxy-L-leucyl]-L-leucyl-D-arginyl-L-isoleucyl-L-allothreonine trifluoroacetate
- step yield [2]: 55% of theory

Substance: [(3R)-N^2-(tert-Butoxycarbonyl)-3-hydroxy-L-leucyl]-L-leucyl-D-arginyl-L-isoleucyl-L-allothreonyl-D-alanyl-[(3S)-3-hydroxy-L-asparaginyl]-L-serinate trifluoroacetate
- step yield [1]: 84% of theory

Substance: [(3R)-N^2-(tert-Butoxycarbonyl)-3-hydroxy-L-leucyl]-L-leucyl-D-arginyl-L-isoleucyl-L-allothreonyl-glycyl-L-alanyl-L-serine trifluoroacetate
- step yield [2]: 99% of theory

Substance: [(3R)-N^2-(tert-Butoxycarbonyl)-3-hydroxy-L-leucyl]-L-leucyl-D-arginyl-L-isoleucyl-L-allothreonyl-glycyl-L-asparaginyl-L-serine trifluoroacetate
- step yield [2]: 99% of theory

Substance: [(3R)-N^2-(tert-Butoxycarbonyl)-3-hydroxy-L-leucyl]-L-leucyl-D-arginyl-L-isoleucyl-L-allothreonyl-glycyl-L-threonyl-L-serine bistrifluoroacetate
- step yield [2]: 98% of theory

Substance: [(3R)-N^2-(tert-Butoxycarbonyl)-3-hydroxy-L-leucyl]-L-leucyl-D-arginyl-L-isoleucyl-L-allothreonyl-glycyl-[(3S)-3-hydroxy-L-asparaginyl]-L-alanine trifluoroacetate
- step yield [2]: 98% of theory

Substance: [(3R)-N^2-(tert-Butoxycarbonyl)-3-hydroxy-L-leucyl]-L-leucyl-D-arginyl-L-isoleucyl-L-allothreonyl-glycyl-[(3S)-3-hydroxy-L-asparaginyl]-L-serine trifluoroacetate
- step yield (late stage modification step, trifluoroacetate, run 1): 70% of theory
- step yield (late stage modification step, trifluoroacetate, run 2): 76% of theory

Substance: [(3R)-N^2-(tert-butoxycarbonyl)-3-hydroxy-L-leucyl]-L-leucyl-D-arginyl-L-isoleucyl-L-allothreonyl-glycyl-[3-(3-pyridyl)-L-alanyl]-L-serine bistrifluoroacetate
- step yield [2]: 88% of theory

Substance: [N^2-(Benzyloxycarbonyl)-3-tert-butyl-D-alanyl]-[3-tert-butyl-L-alanyl]-[(3R)-3-amino-L-phenylalanyl]-[(3R)-3-hydroxy-L-leucyl]-L-leucyl-D-arginyl-L-isoleucyl-L-allothreonyl-glycyl-L-seryl-L-serine C^1.11-N^3.3-lactam hydrochloride
- step yield [1]: 70% of theory

Substance: [N^2-(Benzyloxycarbonyl)-3-tert-butyl-D-alanyl]-[3-tert-butyl-L-alanyl]-{(3R)-3-[(tert-butoxycarbonyl)amino]-L-phenylalanyl}-{(3R)-3-hydroxy-L-leucyl}-L-leucyl-D-arginyl-L-isoleucyl-L-allothreonyl-glycyl-L-asparaginyl-L-serine trifluoroacetate
- step yield [1]: 86.7% of theory

Substance: [N^2-(Benzyloxycarbonyl)-3-tert-butyl-D-alanyl]-[3-tert-butyl-L-alanyl]-{(3R)-3-amino-L-phenylalanyl}-{(3R)-3-hydroxy-L-leucyl}-L-leucyl-D-arginyl-L-isoleucyl-L-allothreonyl-glycyl-L-asparaginyl-L-serine C^1.11-N^3.3-lactam trifluoroacetate
- cyclisation yield (trifluoroacetate): 80.0% of theory

Substance: [N^2-(Benzyloxycarbonyl)-3-tert-butyl-D-alanyl]-[3-tert-butyl-L-alanyl]-{(3R)-3-amino-L-phenylalanyl}-{(3R)-3-hydroxy-L-leucyl}-L-leucyl-D-arginyl-L-isoleucyl-L-allothreonyl-glycyl-L-asparaginyl-L-serine bistrifluoroacetate
- step yield [3]: 85.8% of theory

Substance: [N^2-(Benzyloxycarbonyl)-D-leucyl]-L-leucyl-[(3R)-3-amino-L-phenylalanyl]-[(3R)-3-hydroxy-L-leucyl]-L-leucyl-D-arginyl-L-isoleucyl-L-threonyl-glycyl-L-asparaginyl-L-serine C N^3,3-lactam trifluoroacetate
- cyclisation yield (trifluoroacetate): 88.3% of theory

Substance: [N^2-(Benzyloxycarbonyl)-D-leucyl]-L-leucyl-[(3R)-3-amino-L-phenylalanyl]-[(3R)-3-hydroxy-L-leucyl]-L-leucyl-D-arginyl-L-isoleucyl-L-threonyl-glycyl-L-asparaginyl-L-serine bistrifluoroacetate
- step yield [3]: 63.7% of theory

Substance: [N^2-(Benzyloxycarbonyl)-D-leucyl]-L-leucyl-[(3R)-N^3-(tert-butoxycarbonyl)-3-amino-L-phenylalanyl]-{(3R)-3-hydroxy-L-leucyl}-L-leucyl-D-arginyl-L-isoleucyl-L-threonyl-glycyl-L-asparaginyl-L-serine trifluoroacetate
- step yield [1]: 72.5% of theory

Substance: [N^2-(tert-Butoxycarbonyl)-3-tert-butyl-D-alanyl]-[3-tert-butyl-L-alanyl]-[(3R)-3-amino-L-phenylalanyl]-[(3R)-3-hydroxy-L-leucyl]-L-leucyl-D-arginyl-L-isoleucyl-L-allothreonyl-glycyl-L-phenylalanyl-L-serine C^1.11-N^3.3-lactam Hydrochloride
- step yield (coupling step, hydrochloride): 62% of theory

Substance: [N^2-(tert.-Butoxycarbonyl)-3-tert-butyl-D-alanyl]-[3-tert-butyl-L-alanyl]-[(3R)-3-amino-3-(pyridin-3-yl)-L-alanyl]-[(3R)-3-hydroxy-L-leucyl]-L-leucyl-D-arginyl-L-isoleucyl-L-allothreonyl-glycyl-[(3R)-3-hydroxy-L-asparaginyl]-L-serine
- step yield [1]: 60% of theory

Substance: [N^2-(tert.-Butoxycarbonyl)-3-tert-butyl-D-alanyl]-[3-tert-butyl-L-alanyl]-[(3R)-3-amino-L-phenylalanyl]-[(3R)-3-hydroxy-L-leucyl]-L-leucyl-D-arginyl-L-isoleucyl-L-allothreonyl-glycyl-L-alanyl-L-serine C^1.11-N^3.3-lactam hydrochloride
- step yield (coupling step, hydrochloride): 98% of theory

Substance: [N^2-(tert.-Butoxycarbonyl)-3-tert-butyl-D-alanyl]-[3-tert-butyl-L-alanyl]-[(3R)-3-amino-L-phenylalanyl]-[(3R)-3-hydroxy-L-leucyl]-L-leucyl-D-arginyl-L-isoleucyl-L-allothreonyl-glycyl-L-asparaginyl-L-serine C^1.9-N^3.1-lactam hydrochloride
- step yield (coupling step, hydrochloride): 97% of theory

Substance: [N^2-(tert.-Butoxycarbonyl)-3-tert-butyl-D-alanyl]-[3-tert-butyl-L-alanyl]-[(3R)-3-amino-L-phenylalanyl]-[(3R)-3-hydroxy-L-leucyl]-L-leucyl-D-arginyl-L-isoleucyl-L-allothreonyl-glycyl-[(3S)-3-hydroxy-L-asparaginyl]-L-alanine C^1.11-N^3.3-lactam hydrochloride
- step yield (coupling step, hydrochloride): 85% of theory

Substance: [N^2-(tert.-Butoxycarbonyl)-3-tert-butyl-D-alanyl]-[3-tert-butyl-L-alanyl]-[(3R)-3-amino-L-phenylalanyl]-[(3R)-3-hydroxy-L-leucyl]-L-leucyl-D-arginyl-L-isoleucyl-L-allothreonyl-glycyl-[(3S)-3-hydroxy-L-asparaginyl]-L-serine C^1.11-N^3.3-lactam hydrochloride
- step yield (coupling step, hydrochloride): 89% of theory

Substance: [N^2-(tert.-Butoxycarbonyl)-3-tert-butyl-D-alanyl]-[3-tert-butyl-L-alanyl]-[(3R)-3-amino-L-phenylalanyl]-[(3R)-3-hydroxy-L-leucyl]-L-leucyl-D-arginyl-L-isoleucyl-L-allothreonyl-glycyl-[L-threonyl]-L-serine C^1.11-N^3.3-lactam hydrochloride
- step yield (coupling step, hydrochloride): 91% of theory
